Experimental data: PubChem BioAssay AID504808 (Drosophila RNAi Screening Center, 2011)
Assay: 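Genes whose loss lifts activity of an E2F-responsive reporter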 (primary screen). System: Drosophila S2 cells. Reagent: long dsRNA against Drosophila genes. Measured: 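Dual luciferase plate measurements; E2F-specific signal taken as firefly over Renilla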. Scale: E2F firefly: higher = more E2F reporter activity; Renilla normaliser: higher = more normaliser reporter signal. Hit rule: 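a knock-down counted as active when the firefly/Renilla E2F signal rose above 50%, a threshold chosen arbitrarily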.
In all, the deposit lists about 21,000 reagents; shown is an unselected part of those with a known target gene and a result. Over the whole deposit, 18 (0.084%) were called active. 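Raw counts without plate normalisation, one of two replicates; the ratio scores behind the calls were not deposited.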 A plus sign joins genes that one reagent is predicted to hit. Not given: the amount of reagent, the time to read-out.

predicted target	dsRNA	E2F firefly, rep 1	Renilla normaliser, rep 1	activity call
Prx4	DRSC08668	99470	4221	inactive
sigmar	DRSC04449	83361	3600	inactive
CG32214	DRSC09613	90846	3666	inactive
Myb	DRSC20260	6834	700	inactive
Mettl14	DRSC03073	76850	3342	inactive
CG7131	DRSC16203	61163	2636	inactive
CG18473	DRSC16381	1.29e5	6125	inactive
CG5550	DRSC06943	1.55e5	5461	inactive
CG8230	DRSC05931	1.44e5	5092	inactive
Gga	DRSC18260	8194	732	inactive
Ocho	DRSC11239	1.70e5	7895	inactive
CG34461	DRSC10767	91595	3757	inactive
CG12419 (retired record)	DRSC14513	1.23e5	5391	inactive
VhaPPA1-2	DRSC16176	1.13e5	6136	inactive
CG4660	DRSC18378	1.11e5	5648	inactive
DENR	DRSC20151	1.70e5	6187	inactive
PIG-B	DRSC08216	86330	3869	inactive
Cpsf6	DRSC10781	63846	3629	inactive
CG32773 (retired record)	DRSC17330	69894	2335	inactive
CR42785	DRSC04962	1.34e5	5244	inactive
ppk25	DRSC04973	1.45e5	5661	inactive
CG31269	DRSC15744	1.10e5	6663	inactive
lncRNA:bxd	DRSC13176	86375	2576	inactive
Mfap1	DRSC08154	52323	3685	inactive
CG33958	DRSC06472	1.61e5	5070	inactive
CG33958	DRSC06944	1.52e5	5229	inactive
Src42A	DRSC04915	1.14e5	4713	inactive
Ork1	DRSC20266	7352	756	inactive
CG13564	DRSC04201	1.20e5	5222	inactive
eIF3k	DRSC04056	97977	4270	inactive
mei-S332	DRSC04704	80366	3564	inactive
sick	DRSC02090	84525	3453	inactive
sick	DRSC02301	94286	3704	inactive
sick	DRSC02302	94830	3881	inactive
sick	DRSC02303	1.02e5	4528	inactive
sick	DRSC02306	95963	3675	inactive
Ir67a	DRSC09897	1.39e5	7740	inactive
CG7987	DRSC16357	64897	3614	inactive
CG42260	DRSC03953	1.35e5	4856	inactive
CG42260	DRSC04172	98027	3959	inactive
CG42260	DRSC04385	97769	3721	inactive
CG9449	DRSC11073	1.42e5	6951	inactive
CG17328	DRSC01927	1.09e5	4452	inactive
Pgm1	DRSC10490	66616	2915	inactive
CR18228	DRSC15317	1.34e5	6246	inactive
ACXE	DRSC00847	93149	4208	inactive
CG15141	DRSC02441	79663	3306	inactive
CG15141	DRSC02442	99532	4146	inactive
Ack-like	DRSC07500	2981	48	inactive
snoRNA:U31:54Ec + snoRNA:snR38:54Eb + snoRNA:U27:54Eb + 8 more	DRSC06458	1.51e5	4733	inactive
Ald1	DRSC14109	1742	952	inactive
CCHa2-R	DRSC04825	1.27e5	6516	inactive
CCHa2-R	DRSC04870	1.10e5	4518	inactive
CCHa2-R	DRSC04871	1.04e5	4360	inactive
CG15147	DRSC02447	93534	4211	inactive
CG15147	DRSC02448	1.01e5	4606	inactive
gb	DRSC15961	1699	1012	inactive
CG13949	DRSC00367	1.65e5	6309	inactive
CG15362	DRSC00392	1.74e5	5975	inactive
RYa-R	DRSC16757	1877	848	inactive
dar1	DRSC08049	1.21e5	4445	inactive
dar1	DRSC08233	93658	4223	inactive
CG13559	DRSC04197	99914	3832	inactive
CG33259	DRSC10854	1.46e5	7513	inactive
PPO1	DRSC05929	81945	3335	inactive
ranshi	DRSC16564	1.44e5	6858	inactive
Mf	DRSC16120	1.08e5	5975	inactive
SPR	DRSC17390	76987	2330	inactive
SPR	DRSC17886	1.00e5	6872	inactive
SPR	DRSC18114	1.03e5	5166	inactive
CG7632	DRSC11842	1.19e5	7800	inactive
Imp	DRSC18861	85426	2814	inactive
Imp	DRSC20255	7055	828	inactive
Cyp9c1	DRSC04607	90639	3640	inactive
Cypl	DRSC08362	98231	4302	inactive
Cyp6d5	DRSC16634	75484	3426	inactive
CG8492	DRSC10984	1.09e5	2932	inactive
Or67a	DRSC11240	1.30e5	7376	inactive
CG30192	DRSC03977	1.29e5	4829	inactive
CG13082	DRSC02186	89721	4034	inactive
CG34435	DRSC18086	1.14e5	5670	inactive
CG4951	DRSC15682	1482	952	inactive
CG10841	DRSC14271	83722	3713	inactive
LUBEL	DRSC02141	1.43e5	4600	inactive

11 entries from above, reformatted:
predicted target,dsRNA,"E2F firefly, rep 1","Renilla normaliser, rep 1",activity call
CG7131,DRSC16203,61163,2636,inactive
CG18473,DRSC16381,1.29e5,6125,inactive
CG5550,DRSC06943,1.55e5,5461,inactive
CG8230,DRSC05931,1.44e5,5092,inactive
Gga,DRSC18260,8194,732,inactive
Ocho,DRSC11239,1.70e5,7895,inactive
CG34461,DRSC10767,91595,3757,inactive
CG12419 (retired record),DRSC14513,1.23e5,5391,inactive
VhaPPA1-2,DRSC16176,1.13e5,6136,inactive
CG4660,DRSC18378,1.11e5,5648,inactive
DENR,DRSC20151,1.70e5,6187,inactive
